Consider two molecules from patent publication US10590336B2, “Methods of using novel organic acid compositions in the oil and gas industry” (FLUID ENERGY GROUP LTD., priority 2015, dated 2020).

Series [1] is described as follows: Corrosion testing on aluminum. Conditions: 55° C., 72 hours.
The nature of series [2]: Corrosion testing on chrome coupons. Particulars: Chrome 13, 55° C., 72 hours.
Series [3] is described as follows: Corrosion testing on chromed stainless steel coupons. Particulars: 55° C., 72 hours.

Counter-ions that a name gives are not always drawn.

Take `Cl` [15% HCl, hydrochloric acid]: the Lb/ft2 in series [1] was determined as 0.410 Lb/ft2; in series [2], 0.767 Lb/ft2; in series [3] it was 0.189 Lb/ft2. Further, the results for the Loss weight in series [1], in series [2] and in series [3] were 6.311 g, 11.544 g and 3.071 g, respectively.

Turning to `CS(=O)(=O)O` [MSA (70%), methanesulfonic acid], the Lb/ft2 in series [1] is given as 0.001 Lb/ft2; in series [2], 0.035 Lb/ft2; in series [3] it was 0.043 Lb/ft2. The Loss weight in series [1] came out at 0.018 g; in series [2], 0.534 g; in series [3], 0.693 g.
